PubChem BioAssay AID1259405 – NCATS | 2018

- Aim: 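Knock-downs that lift recombinant protein yield in hamster ovary cells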 (primary screen)
- System: Chinese hamster CHO-K1 ovary cells with stable secreted eGFP expression
- Knock-down reagent: single siRNA against mouse genes, 0.8 pmol siRNA per well (2 µl of 400 nM stock)
- Time to read-out: 3 days
- Read-out: 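Percent of the per-plate non-targeting control median for intracellular GFP per well by laser scanning cytometry and for cell viability by ATP luminescence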
- Scale: GFP, % of control: higher = more GFP per well, higher productivity; viability (ATP), % of control: higher = more viable cells (more ATP)
- Hit rule: 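Called active when intracellular GFP, relative to negative control, is at or above 120%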
This is a random part of about 50,000 reagents tested. In the full data, about 4,000 (8%) got an active call. 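Mouse siRNA library applied to hamster cells; one well for each siRNA.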 Reagents against one gene are numbered here.

How did the screen score Or51h5 #1?
GFP, % of control: 31.5; viability (ATP), % of control: 31.8; call: inactive

How did the screen score Or51h5 #2?
GFP, % of control: 60.3; viability (ATP), % of control: 44.2; call: inactive

Which result is listed for Or51h5 #3?
GFP, % of control: 71.4; viability (ATP), % of control: 83.9; call: inactive

For Eola1 #1, how do the results read?
GFP, % of control: 110; viability (ATP), % of control: 104; call: inactive

With Eola1 #2, what does the deposit list?
GFP, % of control: 62.8; viability (ATP), % of control: 65.6; call: inactive

For Eola1 #3, what was measured?
GFP, % of control: 80.2; viability (ATP), % of control: 52.3; call: inactive

For Dbp #1, how do the results read?
GFP, % of control: 45.3; viability (ATP), % of control: 41.5; call: inactive

For Dbp #2, how do the results read?
GFP, % of control: 43; viability (ATP), % of control: 41.6; call: inactive

Which result is listed for Dbp #3?
GFP, % of control: 96.9; viability (ATP), % of control: 97.4; call: inactive

Which result is listed for Plpp2 #1?
GFP, % of control: 98; viability (ATP), % of control: 89.5; call: inactive

For Plpp2 #2, what does the deposit list?
GFP, % of control: 124; viability (ATP), % of control: 81.7; call: active

What did the screen give for Plpp2 #3?
GFP, % of control: 94.8; viability (ATP), % of control: 104; call: inactive

What is on record for Or2t44 #1?
GFP, % of control: 72.7; viability (ATP), % of control: 61.2; call: inactive

For Or2t44 #2, what does the deposit list?
GFP, % of control: 95; viability (ATP), % of control: 62; call: inactive

How did the screen score Or2t44 #3?
GFP, % of control: 37.5; viability (ATP), % of control: 88.3; call: inactive

What did the screen give for Fgf17 #1?
GFP, % of control: 74.8; viability (ATP), % of control: 75.5; call: inactive

For Fgf17 #2, what does the deposit list?
GFP, % of control: 80.6; viability (ATP), % of control: 82.4; call: inactive

For Fgf17 #3, what does the deposit list?
GFP, % of control: 66.4; viability (ATP), % of control: 66.8; call: inactive

Reprinted from above, 3 entries:
Plpp2 #3 — GFP, % of control = 94.8; viability (ATP), % of control = 104; call = inactive
Or2t44 #1 — GFP, % of control = 72.7; viability (ATP), % of control = 61.2; call = inactive
Or2t44 #2 — GFP, % of control = 95; viability (ATP), % of control = 62; call = inactive
